From PMC9169624, “Human HELB is a processive motor protein that catalyzes RPA clearance from single-stranded DNA” (Proceedings of the National Academy of Sciences of the …, 2022) come the findings set out here.

Chains of the proteins cited; added tags and fusions are not shown. Lines headed by an entry give the natural chain unless they say otherwise; changes in a name come on top. Chains listed by the source or under a name are the forms on record and can include a tag or linker.
UniProt Q8NG08: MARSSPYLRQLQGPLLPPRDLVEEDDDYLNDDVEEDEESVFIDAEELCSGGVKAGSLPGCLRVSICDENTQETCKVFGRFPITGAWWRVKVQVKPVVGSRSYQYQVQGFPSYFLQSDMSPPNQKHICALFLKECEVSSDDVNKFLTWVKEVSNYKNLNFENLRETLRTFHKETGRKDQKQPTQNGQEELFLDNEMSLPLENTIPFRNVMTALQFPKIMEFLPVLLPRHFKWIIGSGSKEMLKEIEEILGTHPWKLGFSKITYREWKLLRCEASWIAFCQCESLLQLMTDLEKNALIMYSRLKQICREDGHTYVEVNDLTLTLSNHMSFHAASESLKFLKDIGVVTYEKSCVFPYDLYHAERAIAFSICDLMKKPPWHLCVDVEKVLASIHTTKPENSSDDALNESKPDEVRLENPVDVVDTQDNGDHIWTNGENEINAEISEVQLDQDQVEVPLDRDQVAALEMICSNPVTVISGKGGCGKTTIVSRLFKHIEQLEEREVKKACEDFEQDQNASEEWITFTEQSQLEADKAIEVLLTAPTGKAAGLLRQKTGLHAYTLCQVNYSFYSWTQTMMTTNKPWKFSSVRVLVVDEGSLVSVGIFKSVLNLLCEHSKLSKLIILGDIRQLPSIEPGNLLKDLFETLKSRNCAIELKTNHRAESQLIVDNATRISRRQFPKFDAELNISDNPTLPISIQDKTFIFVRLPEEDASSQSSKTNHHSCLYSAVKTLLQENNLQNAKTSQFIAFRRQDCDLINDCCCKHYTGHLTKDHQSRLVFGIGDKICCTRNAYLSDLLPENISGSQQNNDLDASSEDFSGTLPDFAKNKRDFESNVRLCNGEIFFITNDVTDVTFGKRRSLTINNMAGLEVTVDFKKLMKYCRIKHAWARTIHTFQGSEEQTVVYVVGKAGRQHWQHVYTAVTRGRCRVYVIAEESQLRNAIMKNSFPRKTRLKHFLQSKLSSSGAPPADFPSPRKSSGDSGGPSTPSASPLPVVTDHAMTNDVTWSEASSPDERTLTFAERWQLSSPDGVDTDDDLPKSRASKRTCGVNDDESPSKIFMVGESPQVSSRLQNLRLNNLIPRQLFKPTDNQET
HELB (DNA helicase B) + Yeast RPA (yRPA), one chain, as listed by the source, chain 2 of 4: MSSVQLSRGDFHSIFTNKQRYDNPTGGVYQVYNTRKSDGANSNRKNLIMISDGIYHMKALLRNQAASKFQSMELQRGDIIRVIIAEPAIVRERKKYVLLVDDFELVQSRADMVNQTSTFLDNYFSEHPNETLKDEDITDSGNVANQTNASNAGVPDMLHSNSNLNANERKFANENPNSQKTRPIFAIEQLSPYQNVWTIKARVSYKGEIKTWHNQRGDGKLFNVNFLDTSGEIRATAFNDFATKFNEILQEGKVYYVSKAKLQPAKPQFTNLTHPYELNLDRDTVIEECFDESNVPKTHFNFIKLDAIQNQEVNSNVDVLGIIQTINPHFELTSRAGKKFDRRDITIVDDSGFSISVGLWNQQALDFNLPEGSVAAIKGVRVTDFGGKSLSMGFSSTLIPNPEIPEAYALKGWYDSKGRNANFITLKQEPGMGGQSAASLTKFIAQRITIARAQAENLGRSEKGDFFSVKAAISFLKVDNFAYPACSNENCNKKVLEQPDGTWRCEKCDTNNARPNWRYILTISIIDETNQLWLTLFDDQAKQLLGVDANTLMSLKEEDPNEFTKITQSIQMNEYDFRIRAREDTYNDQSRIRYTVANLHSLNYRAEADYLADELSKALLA
HELB (DNA helicase B) + Yeast RPA (yRPA), one chain, as listed by the source, chain 3 of 4: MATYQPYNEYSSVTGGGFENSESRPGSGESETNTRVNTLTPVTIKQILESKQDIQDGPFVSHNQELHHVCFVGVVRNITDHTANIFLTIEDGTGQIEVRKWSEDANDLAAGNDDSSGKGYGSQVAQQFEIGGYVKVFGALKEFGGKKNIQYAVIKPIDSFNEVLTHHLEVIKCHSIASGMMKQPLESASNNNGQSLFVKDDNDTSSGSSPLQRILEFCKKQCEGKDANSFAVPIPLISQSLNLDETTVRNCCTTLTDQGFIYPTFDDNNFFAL
HELB (DNA helicase B) + Yeast RPA (yRPA), one chain, as listed by the source, chain 1 of 4: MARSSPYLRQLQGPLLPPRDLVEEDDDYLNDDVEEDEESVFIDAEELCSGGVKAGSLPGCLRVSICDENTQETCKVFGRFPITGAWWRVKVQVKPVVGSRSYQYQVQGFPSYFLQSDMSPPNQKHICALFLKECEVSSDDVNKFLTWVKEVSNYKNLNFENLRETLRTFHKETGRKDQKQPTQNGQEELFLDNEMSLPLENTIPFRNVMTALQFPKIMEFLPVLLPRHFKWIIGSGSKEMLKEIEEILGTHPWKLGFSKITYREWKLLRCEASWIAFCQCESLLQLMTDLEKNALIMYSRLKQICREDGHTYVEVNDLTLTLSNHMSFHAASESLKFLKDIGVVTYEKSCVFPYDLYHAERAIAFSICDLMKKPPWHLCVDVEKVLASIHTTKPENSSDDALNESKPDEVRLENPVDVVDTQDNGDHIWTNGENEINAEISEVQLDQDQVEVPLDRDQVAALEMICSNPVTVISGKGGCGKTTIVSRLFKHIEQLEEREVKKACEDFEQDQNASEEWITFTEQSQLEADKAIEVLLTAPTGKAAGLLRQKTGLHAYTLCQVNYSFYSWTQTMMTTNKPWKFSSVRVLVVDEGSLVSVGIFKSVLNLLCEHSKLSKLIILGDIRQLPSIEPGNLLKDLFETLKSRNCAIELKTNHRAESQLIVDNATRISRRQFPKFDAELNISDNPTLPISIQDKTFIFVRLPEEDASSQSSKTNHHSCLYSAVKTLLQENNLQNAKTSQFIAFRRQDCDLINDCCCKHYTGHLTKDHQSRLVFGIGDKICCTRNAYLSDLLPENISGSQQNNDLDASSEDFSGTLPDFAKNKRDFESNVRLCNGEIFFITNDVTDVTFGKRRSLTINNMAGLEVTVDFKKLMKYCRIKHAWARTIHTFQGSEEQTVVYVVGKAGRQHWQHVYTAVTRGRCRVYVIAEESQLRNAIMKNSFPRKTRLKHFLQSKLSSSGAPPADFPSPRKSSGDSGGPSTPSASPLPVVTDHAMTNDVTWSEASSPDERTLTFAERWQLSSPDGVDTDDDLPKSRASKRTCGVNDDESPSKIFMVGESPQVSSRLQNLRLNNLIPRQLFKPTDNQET
HELB (DNA helicase B) + Yeast RPA (yRPA), one chain, as listed by the source, chain 4 of 4: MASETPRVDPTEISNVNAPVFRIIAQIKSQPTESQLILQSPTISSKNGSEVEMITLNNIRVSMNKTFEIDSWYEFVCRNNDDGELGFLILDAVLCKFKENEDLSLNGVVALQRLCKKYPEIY

Construct, isoform or probe ends are uncertain for at least one entry. For some of these results: A negative result means that nothing was seen under these conditions. For some of these results: A weaker result is weaker than the reference pair of the same experiment. For some of these results: At least one verdict was read from the data and is not stated in words by the source.

Data set [1] has as its system HELB (DNA helicase B) + Yeast RPA (yRPA). The data set can be described thus: EMSA. Particulars: no ternary complex, yRPA itself binds the DNA; EMSA: 2.5 nM DNA (5 nM in Fig. S1F); recombinant protein; label: 5'-Cy5; single-stranded DNA. On the technique in general: Mobility shift assays separate free from complexed probe on a gel.
Data set [2] deals with Yeast RPA (yRPA) (Saccharomyces cerevisiae). The data set can be described thus: EMSA. To be noted: yeast RPA-coated ssDNA; EMSA: 2.5 nM DNA (5 nM in Fig. S1F); recombinant protein; label: 5'-Cy5; single-stranded DNA.
In data set [3] the target is HELB (DNA helicase B) (Homo sapiens) (UniProt Q8NG08). In words: PIFE fluorescence. Particulars: Kd value only in figure; PIFE: 2 nM DNA for Kd; pH and temperature not in the supplied material; optical tweezers at room temperature; recombinant protein; residues 1-1087; label: 3'-Cy3; single-stranded DNA.

With GCTTGCTAGGACGGATCGCTCGAGG [EMSA 25mer], the values for the binding result in data set [1] and in data set [2] were “no binding” and “binds”, respectively.

For the sequence TTTTTTTTTTTTTTT [poly(dT) 15mer], the binding result in data set [3] is reported as “binds more weakly”.

For the sequence TTTTTTTTTTTTTTTTTTTT [poly(dT) 20mer], in data set [3], the binding result is recorded as “binds more weakly”.
